Experimental data taken from PMC6433294, “Differential thermal stability, conformational stability and unfolding behavior of Eis proteins from Mycobacterium smegmatis and Mycobacterium tuberculosis” (PLoS ONE, 2019).
Results are given in words; binding and its absence hold for the method and conditions named.

Target: M. smegmatis Eis (MSMEG_3513) protein (M. smegmatis) (UniProt A0QY29)
Experiment: condition: only in SDS (loading dye with 1% SDS, SDS-PAGE), unboiled; SDS-PAGE of unboiled sample; 10 ug unboiled protein on 8% SDS-PAGE, loading dye with 1% SDS, 0.125 M Tris pH 6.8, 40% glycerol; Coomassie stain; both purified

B1: M. smegmatis Eis (MSMEG_3513) protein (enzyme, UniProt A0QY29 1-402, looked up)
chain: MITPRTLHTITDDDWTRIALLARFAFGDIEPEQTQAAWRSMVPEDATVVVPDETDDAFVGQSLYLDMQLTVPGGEVLPVAGISFVAVAPTHRRRGVLRAMYTELHDRIARAGYPLAVLTASEGGIYGRFGYGVATIEQHVSVDRRLAQFHPAAPDPGGVRMLVPADHRDGLADIYDRWRRRTPGGLVRPDALWDDLLADRPESRRGGGELFAFGHQDGYALYRVDRGPDGRRSAHVVELTAVTADAHAALWRALLGLDLIDRVSIGTHPHDPLPYLLTDPRQAQVTASADDLWIRIMNVPAALEARRYQADLDVVLDVADGFRSDGGRFALQISGGRARCTTTDAPADIEIDLDVLGGLYLGAHRVDGFAAANRLRSKDSELLQQFGAAFAGDMPAELGYGF
notes: also called MsEis; Enhanced Intracellular Survival protein from M. smegmatis
- binding: no binding
